Literature values, collected in patent US6756381B2 (SuperGen, Inc., priority 2002, dated 2004).
At least one structure is not confirmed: it was looked up by name or label, or the drawing left a doubt.

Conditions: cited from earlier work

SMILES: CC[C@@](O)(C(=O)[O-])c1cc2n(c(=O)c1CO)Cc1cc3ccccc3nc1-2.[Na+] [Sodium camptothecin]
- potency relative to native camptothecin with closed α-hydroxy lactone ring: 10%
